Measured values published in PubChem BioAssay AID248 (DTP/NCI, 2004).
The list does not hold the whole screen: it is rich in T/C values a quarter to a half above the control, in often repeated tests (any T/C) and in doses without a T/C. Other doses and runs of a compound stand elsewhere. T/C gives the treated animals as a percentage of the vehicle group. Some doses have a count of surviving animals in place of a T/C: the source files T/C as zero there, which appears to mark a toxic dose or a test without result, not a measured value. Some survivor counts are full or nearly so, which does not show that the dose was tolerated: survival well below the control is almost never listed, so the zero probably covers shortened survival too. Counts of survivors are from the toxicity check (mostly the fifth day) where no day follows; animals may have died later. Schedule codes are those of the source, read here as Q, the interval in days (D) or hours (H), X, the number of doses. Where survival is the endpoint, this PubChem deposit counts one and a half times the control or more as active, and values a quarter to a half above the control carry no call in these data; other NCI protocols may use other cut-offs. Some entries hold several experiments; the values are given in rising order. Some T/C values carry the count of animals alive at the toxicity check (mostly the fifth day); without a count, all were alive then.

Tested on: L1210 leukemia ip in BDF1 mice, survival T/C
Assay: NCI In Vivo Anticancer Drug Screen. Data for tumor model L1210 Leukemia (intraperitoneal) in B6D2F1 (BDF1) mice
Details: T/C endpoint: mean survival time, higher T/C = longer survival

CN1CCN=C1c1ccc(NC(=O)Nc2ccc(NC(=O)Nc3ccc(C4=NCCN4C)cc3)cc2)cc1
T/C (dose: 22.0 mg/kg/injection, schedule: Q01DX009 (ip), vehicle: saline): 125 % of control
T/C (dose: 33.0 mg/kg/injection, schedule: Q01DX009 (ip), vehicle: saline): 144 % of control [5 of 6 alive]
survivor count (dose: 300.0 mg/kg/injection, schedule: Q01DX001 (ip), vehicle: other): 0 of 6

CCN(CC)CCOC(=O)C1CC1(c1ccccc1)c1ccccc1 (centres undefined)
survivor count (dose: 200.0 mg/kg/injection, schedule: Q01DX009 (ip), vehicle: Klucel (hydroxypropylcellulose) (HPC)): 0 of 6
survivor count (dose: 400.0 mg/kg/injection, schedule: Q01DX009 (ip), vehicle: Klucel (hydroxypropylcellulose) (HPC)): 0 of 6

OCCN1CC1
T/C (dose: 1.56 mg/kg/injection, schedule: Q01DX009 (ip), vehicle: saline): 135 % of control

COC(=O)c1cc(C)[nH]c(=O)c1CN
survivor count (dose: 300.0 mg/kg/injection, schedule: Q01DX001 (ip), vehicle: water): 3 of 6

Cn1nnn2c(-c3ccccc3)nnc12
survivor count (dose: 400.0 mg/kg/injection, schedule: Q01DX009 (ip), vehicle: saline with Tween-80): 3 of 6

CCOc1c(Br)cc(N=Cc2ccc(N(CCCl)CCCl)c(OC)c2)cc1Br
T/C (dose: 66.0 mg/kg/injection, schedule: Q01DX001 (ip), vehicle: carboxymethylcellulose (CMC)): 130 % of control
T/C (dose: 100.0 mg/kg/injection, schedule: Q01DX001 (ip), vehicle: carboxymethylcellulose (CMC)): 129 and 133 % of control
survivor count (dose: 400.0 mg/kg/injection, schedule: Q01DX001 (ip), vehicle: carboxymethylcellulose (CMC)): 0 of 4

Cc1cc(C)[nH]c(=O)n1
survivor count (dose: 400.0 mg/kg/injection, schedule: Q01DX009 (ip), vehicle: saline): 4 of 6

O=C(CCl)Oc1c(Cl)c(Cl)c(Cl)c(Cl)c1Cl
survivor count (dose: 200.0 mg/kg/injection, schedule: Q04DX003 (ip), vehicle: alcohol): 0 of 6
survivor count (dose: 400.0 mg/kg/injection, schedule: Q04DX003 (ip), vehicle: alcohol): 0 of 6
